Assay results: the supplement of paper PMC3334620
Whole data set: some 33,000 sequences, median “E-score (-0.5 to 0.5)” near -0.0059, cut for the highest 2% near 0.26. Some of the results follow.

Target: T1, Cin5 (UniProt P40917)
T1 sequence: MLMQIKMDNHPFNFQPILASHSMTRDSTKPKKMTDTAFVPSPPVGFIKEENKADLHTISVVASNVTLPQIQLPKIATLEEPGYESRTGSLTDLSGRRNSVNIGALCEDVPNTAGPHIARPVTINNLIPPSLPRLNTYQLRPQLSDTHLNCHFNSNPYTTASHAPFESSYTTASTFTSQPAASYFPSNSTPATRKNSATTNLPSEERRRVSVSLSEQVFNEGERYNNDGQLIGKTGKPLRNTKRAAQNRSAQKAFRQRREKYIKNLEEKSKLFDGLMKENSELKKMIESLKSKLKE
Test: PBM E-score (8-mer binding enrichment) (E-score (-0.5 to 0.5)); higher = stronger / more preferred TF binding
Conditions: protein concentration: 100 nM; construct: GST-full length
Outline: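 Detection of bound protein used fluorescent anti-GST, with scans normalised by masliner. The proteins were GST-tagged yeast transcription factors applied at about 100-200 nM to universal all-10-mer Agilent arrays made double-stranded by primer extension. Each ungapped eight-base word, pooled with its reverse complement, was scored with an E-score from the Universal PBM Analysis Suite.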

Row | Sequence | PBM E-score
1 | AATTTAAA | 0.103
2 | GCTTGGAA | -0.0446
3 | AGGTAATG | 0.124
4 | CCTGGCCG | -0.166
5 | CACAGAGG | -0.151
6 | GGACCTAC | -0.0461
7 | ACACTTCG | 0.0775
8 | CCTATGCA | 0.0538
9 | AAATTTCT | 0.00133
10 | ACGACCAA | -0.129
11 | CTCGTGAC | -0.102
12 | CAGAAAAA | 0.0244
13 | CACCTACC | -0.23
14 | ACACCGCT | -0.166
15 | AGCGGGGA | -0.142
16 | CGGGTTTA | 0.24
17 | ATCTCGAG | 0.0137
18 | GGGCTAAA | 0.0101
19 | CATTCTAG | -0.0534
20 | GCTAGGAA | -0.0357
21 | AGTGCTCG | -0.0307
22 | CCTACGCG | 0.00501
23 | CCAACAGA | 0.0276
24 | AGAGGCAA | -0.122
25 | GAGCAATC | 0.0442

Nothing new here: an excerpt of the list.
Row | Sequence | PBM E-score
13 | CACCTACC | -0.23
14 | ACACCGCT | -0.166

(further entries)

Row | Sequence | PBM E-score
26 | GGAGGCCA | -0.291
27 | ACCTTCTA | 0.00913
28 | GCCCCATA | 0.108
29 | ACACGTAC | -0.0415
30 | AGAGGCGA | -0.238
31 | CAACGGTC | -0.208
32 | AGCGATAA | 0.0116
33 | CGTTGAAC | -0.0849
34 | GGGTGGTA | -0.0602
35 | ACAGGCCT | -0.144
36 | CGTAACAC | 0.131
37 | CTTAGAGC | -0.0864
38 | AGCTTCCA | 0.0473
39 | ACAGAGGT | -0.00542
40 | GACCAGTA | -0.1
41 | CCAACTTC | -0.0818
42 | ACCCCCAG | -0.441
43 | GTGAATTA | 0.216
44 | GCTTCCGA | 0.0269
45 | CTCTGTAA | -0.0837
46 | ATATGGTG | 0.105
47 | ATCTGCCG | 0.123
48 | CGGGGTAA | 0.0993
49 | CATTCGGA | 0.0388
50 | CCATCCAA | 0.00982

Shown as labelled records: part of the list above.
GCTTGGAA
  PBM E-score: -0.0446
CAGAAAAA
  PBM E-score: 0.0244
CCATCCAA
  PBM E-score: 0.00982

The list continues:

Row | Sequence | PBM E-score
51 | ACAATTTC | 0.139
52 | CGTGCTAC | -0.209
53 | ACCTGGTC | -0.0997
54 | CGTTGTTC | -0.13
55 | CAAGTAAA | 0.0964
56 | CTGGTAGA | 0.0491
57 | CCACACGC | -0.0203
58 | GACCACGC | -0.211
59 | TCTCGCCA | 0.014
60 | CCAGCCCA | -0.261
61 | CCTGAGGC | -0.216
62 | CAAACGAC | 0.218
63 | AAAGCGTG | -0.0461
64 | AGGGCGAA | -0.119
65 | GATCGCCA | -0.0247
66 | TGTCGGAA | -0.0356
67 | CATCCATG | 0.0198
68 | GACCGGAA | -0.0318
69 | GGGAAACA | -0.0209
70 | CCGAACGA | 0.086
71 | AGCCCGCG | -0.0699
72 | ATTTTTTA | 0.198
73 | AATGTATG | 0.118
74 | ACCCGTCT | -0.0849
75 | TCCTCACA | -0.155

Row | Sequence | PBM E-score
76 | TACTAAAA | 0.197
77 | ACGGAGAG | 0.00731
78 | GAGAGTGA | 0.0691
79 | AAATGTCA | 0.0985
80 | CGGAATAC | 0.234
81 | ACACTCTA | 0.0582
82 | CATCCTAG | -0.0422
83 | AGGAAGAG | -0.259
84 | AGGTCTCA | -0.0655
85 | ATCGTACA | 0.103
86 | AGAACGAT | 0.0608
87 | ACTAGTAG | 0.101
88 | CTTCGACA | -0.14
89 | ATGCGCAC | 0.0881
90 | GACACCTC | -0.0446
91 | CACTCTTA | 0.0625
92 | ACTCCAGA | -0.142
93 | GCGTGTCA | 0.113
94 | GCCCGGGC | -0.152
95 | CTTGAAAC | 0.174
96 | AATTAGGA | -0.025
97 | AATTTTTA | 0.166
98 | AACACCCG | 0.2
99 | ACACCGCA | -0.046
100 | CCCGCAAG | -0.22

2 entries drawn at random from those above, as already listed:
Row | Sequence | PBM E-score
84 | AGGTCTCA | -0.0655
92 | ACTCCAGA | -0.142

Additional entries

Row | Sequence | PBM E-score
101 | TGAGTGCA | 0.0371
102 | AAGAAGGA | 0.0598
103 | GAGTCAAC | -0.0718
104 | AAGGATAT | 0.146
105 | ATTAAGGG | -0.225
106 | CCGCAGAC | -0.194
107 | CGTTTTTC | -0.0208
108 | GACACCGC | -0.107
109 | ATAAGTAC | 0.188
110 | ACAGAGGC | -0.17
111 | CCAAGGCG | -0.163
112 | AAGATGAC | 0.051
113 | CAATCACC | 0.00466
114 | GGAAGTGA | 0.188
115 | AGATTGAG | 0.162
116 | CAAAACGC | 0.0996
117 | CGCGCGCC | 0.0614
118 | ACTAAATC | 0.211
119 | CAGTATAG | 0.161
120 | AAAGATGA | 0.00284
121 | CACACGGC | -0.13
122 | GCAATTGA | 0.0995
123 | AATGAACT | 0.0769
124 | TCATCCAA | 0.163
125 | CTGTTAGC | -0.112

Row | Sequence | PBM E-score
126 | GCGGGAGA | -0.183
127 | CGTGTTTA | -0.0391
128 | CGCGGACA | 0.022
129 | AACGGGGA | -0.0504
130 | GCCAAGGA | -0.199
131 | CGCTTTAC | 0.0233
132 | GCCTGCGA | -0.218
133 | GTCTGTGA | 0.0584
134 | AGTACTGC | -0.0121
135 | ATGTGCTG | 0.171
136 | TCTAACAA | 0.00087
137 | TCCCGGCA | -0.157
138 | CCAATCAC | 0.00965
139 | CCACCCCC | -0.351
140 | CTTGTATA | 0.0725
141 | CAAGAAAG | -0.00671
142 | AGGAACCA | -0.189
143 | CCTTTGCG | 0.123
144 | AATTCTAT | -0.11
145 | GGCCCGTA | -0.0747
146 | ACTGAATC | -0.0604
147 | GAGTCGTA | 0.00969
148 | GTTGTGTA | 0.082
149 | AGCCCTGA | -0.281
150 | AGGAATCA | 0.172

Row | Sequence | PBM E-score
151 | ACAGTGTC | -0.121
152 | TGTCAAAA | 0.062
153 | ATTTTGGA | 0.0917
154 | CACTTCCC | 0.0115
155 | AATTGTAT | 0.0937
156 | AAAAAAGG | 0.079
157 | CTCTAGGA | -0.304
158 | CTGAAATC | 0.0664
159 | CTTCACCA | -0.16
160 | ACACTCAG | 0.0773
161 | AGGAAATA | 0.164
162 | CCGTACGA | -0.0276
163 | CCGGCCGC | -0.244
164 | CCCACGTA | -0.0439
165 | AGTCATGC | -0.102
166 | GAAAATCA | -0.0353
167 | CAGGACAA | 0.0897
168 | GATCCGGA | 0.00936
169 | ATAGCATC | 0.0969
170 | AATTTCGC | 0.189
171 | ATACGGCG | 0.0741
172 | ATATTTAG | 0.137
